Measured values taken from paper PMC4427131.
These are yes or no findings as the source states them, for the method shown. In cells and extracts the contact can be indirect. Some binding calls cover weakened binding; strength is not graded here.

By UniProt entry, the sequences of proteins in these tests, tags left out. Residues count along the entry.
UniProt P17181, residues 28-557: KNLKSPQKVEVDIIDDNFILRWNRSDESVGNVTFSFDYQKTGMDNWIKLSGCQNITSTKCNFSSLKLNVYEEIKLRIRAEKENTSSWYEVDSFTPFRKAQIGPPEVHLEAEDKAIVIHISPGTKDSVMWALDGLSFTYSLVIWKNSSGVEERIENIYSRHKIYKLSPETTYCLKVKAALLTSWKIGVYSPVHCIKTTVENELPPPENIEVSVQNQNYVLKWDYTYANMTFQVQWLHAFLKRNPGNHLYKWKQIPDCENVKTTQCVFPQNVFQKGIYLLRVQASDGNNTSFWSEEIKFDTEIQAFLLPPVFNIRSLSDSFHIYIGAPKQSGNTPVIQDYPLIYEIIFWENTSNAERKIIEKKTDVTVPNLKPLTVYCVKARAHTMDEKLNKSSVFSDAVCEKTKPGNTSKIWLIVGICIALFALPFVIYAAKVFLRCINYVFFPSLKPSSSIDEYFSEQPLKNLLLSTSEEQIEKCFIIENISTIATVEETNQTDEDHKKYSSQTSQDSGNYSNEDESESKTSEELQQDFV
UniProt P11142: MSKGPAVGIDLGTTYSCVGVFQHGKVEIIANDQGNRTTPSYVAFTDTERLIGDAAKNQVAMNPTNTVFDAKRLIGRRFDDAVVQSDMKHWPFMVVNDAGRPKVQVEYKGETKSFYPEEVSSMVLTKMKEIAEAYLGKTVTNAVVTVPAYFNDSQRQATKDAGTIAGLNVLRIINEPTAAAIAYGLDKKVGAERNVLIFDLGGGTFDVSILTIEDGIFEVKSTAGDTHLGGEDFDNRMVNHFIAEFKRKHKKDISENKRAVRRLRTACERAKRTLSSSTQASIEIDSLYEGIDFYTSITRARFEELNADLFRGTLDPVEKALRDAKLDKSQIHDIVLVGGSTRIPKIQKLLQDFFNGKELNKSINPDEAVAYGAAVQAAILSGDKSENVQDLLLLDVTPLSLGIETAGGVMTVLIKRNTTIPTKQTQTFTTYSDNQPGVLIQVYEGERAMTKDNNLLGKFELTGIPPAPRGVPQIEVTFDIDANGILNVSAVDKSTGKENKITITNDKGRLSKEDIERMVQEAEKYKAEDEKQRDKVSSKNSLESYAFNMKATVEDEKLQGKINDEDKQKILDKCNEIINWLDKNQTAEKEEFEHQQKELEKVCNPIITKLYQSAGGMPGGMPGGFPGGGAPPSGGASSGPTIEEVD

Target: Interferon-alpha receptor-1 (IFNAR1) (human (endogenous in Huh-7.5)) (UniProt P17181)
Test: co-IP; Huh-7.5 cells serum starved (12 hours in the methods, 4 hours in the results, six hours in the legend), lysed in RIPA buffer; 1 mg extract immunoprecipitated with anti-IFNAR1 or anti-IFNLR1 antibody overnight at 4°C, protein A/G plus-agarose, washed three times with RIPA buffer; blots for LAMP2A and HSC70

For “heat-shock cognate protein HSC70 (from UniProt P11142 1-646)”, the binding was “binds”.
